# Values quoted from earlier work in PMC8954214, “Preparation, Identification, Molecular Docking Study and Protective Function on HUVECs of Novel ACE Inhibitory Peptides from Protein Hydrolysate of Skipjack Tuna Muscle” (Marine Drugs, 2022).
# The chains behind the UniProt entries cited, without tags or fusion partners. Residues count along the entry.
# UniProt P12822, 34-1310 limits assumed: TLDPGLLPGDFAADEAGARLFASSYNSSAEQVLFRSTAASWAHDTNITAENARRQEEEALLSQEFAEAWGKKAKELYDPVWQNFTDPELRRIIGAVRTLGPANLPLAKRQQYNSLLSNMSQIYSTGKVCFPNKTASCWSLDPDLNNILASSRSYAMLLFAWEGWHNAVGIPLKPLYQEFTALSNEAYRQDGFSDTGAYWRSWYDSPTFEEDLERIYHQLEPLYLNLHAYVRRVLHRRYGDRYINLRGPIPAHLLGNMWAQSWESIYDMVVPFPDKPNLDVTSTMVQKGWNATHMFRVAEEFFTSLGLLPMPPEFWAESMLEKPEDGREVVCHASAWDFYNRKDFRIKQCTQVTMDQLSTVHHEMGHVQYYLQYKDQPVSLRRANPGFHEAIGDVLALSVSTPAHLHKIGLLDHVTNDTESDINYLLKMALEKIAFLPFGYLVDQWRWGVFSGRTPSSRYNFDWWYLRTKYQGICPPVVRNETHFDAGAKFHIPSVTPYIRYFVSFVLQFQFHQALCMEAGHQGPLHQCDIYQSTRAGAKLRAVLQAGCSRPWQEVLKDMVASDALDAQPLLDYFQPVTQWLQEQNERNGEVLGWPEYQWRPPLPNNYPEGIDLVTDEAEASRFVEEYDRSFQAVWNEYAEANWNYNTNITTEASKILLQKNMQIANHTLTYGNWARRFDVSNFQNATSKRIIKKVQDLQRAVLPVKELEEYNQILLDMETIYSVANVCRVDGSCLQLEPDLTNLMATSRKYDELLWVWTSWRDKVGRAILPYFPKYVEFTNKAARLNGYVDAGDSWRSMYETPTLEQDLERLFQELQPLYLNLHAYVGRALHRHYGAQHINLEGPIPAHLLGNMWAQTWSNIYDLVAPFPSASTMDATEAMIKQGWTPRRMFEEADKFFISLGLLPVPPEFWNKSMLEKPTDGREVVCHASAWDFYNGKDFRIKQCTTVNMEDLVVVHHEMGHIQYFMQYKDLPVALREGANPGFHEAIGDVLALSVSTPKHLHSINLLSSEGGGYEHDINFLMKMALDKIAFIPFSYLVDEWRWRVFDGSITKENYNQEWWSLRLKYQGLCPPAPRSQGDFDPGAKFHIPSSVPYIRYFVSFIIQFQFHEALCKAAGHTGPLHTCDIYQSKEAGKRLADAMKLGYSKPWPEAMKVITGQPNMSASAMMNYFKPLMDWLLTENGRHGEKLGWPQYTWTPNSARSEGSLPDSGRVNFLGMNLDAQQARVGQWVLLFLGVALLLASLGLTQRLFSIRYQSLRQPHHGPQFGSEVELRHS
# The match of structure and compound is tentative.
# Legend:
# ACE [1] = target: T1, ACE (Oryctolagus cuniculus, UniProt P12822); details: docking; cited from earlier work
# ET-1 = details: from Antarctic krill; cited from earlier work
# ACE [2] = target: T1, ACE; details: Antarctic krill peptides; cited from earlier work
# HUVECs = details: cited from earlier work
SMILES,affinity with ACE (ACE [1]) [kcal/mol],ET-1 content (ET-1),IC50 (ACE [2]) [µg/mL],NO production of HUVEC (HUVECs)
NCCCC[C@H](NC(=O)[C@H](CO)NC(=O)[C@@H](N)Cc1ccc(O)cc1)C(=O)O,-7.9,,,
NCCCC[C@H](NC(=O)[C@H](CCC(N)=O)NC(=O)[C@@H](N)Cc1ccccc1)C(=O)O,,reducing ET-1 content,1760,increasing the NO production
